# Experimental data published in the supplement of paper PMC8728848.
# Some of the results follow.
# Legend:
# Assay in all cases: glycan array binding signal (z-score within array); higher = stronger binding
# Details in all cases: glycan notation: IUPAC condensed, linker removed
# [1] = biological target: Gal(b1-4)GalNAc(b1-3)[Fuc(a1-2)]Gal(b1-4)GlcNAc
# Outline: (§1)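 The binding signal is a Z-score computed within each array. Data were drawn from 3228 arrays in the Consortium for Functional Glycomics database, restricted to those with a known protein sequence. Scores were averaged over arrays of the same protein sequence at different concentrations or buffers, and over linkers, and negative values can be taken as non-binding.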
# [2] = biological target: Gal(b1-4)Glc
# Outline: as §1
# [3] = biological target: Gal(b1-4)Glc6S
# Outline: as §1
# [4] = biological target: Gal(b1-4)GlcNAc
# Outline: as §1
# [5] = biological target: Gal(b1-4)GlcNAc(a1-6)Gal(b1-4)GlcNAc
# Outline: as §1
# [6] = biological target: Gal(b1-4)GlcNAc(b1-2)Man
# Outline: as §1
# [7] = biological target: Gal(b1-4)GlcNAc(b1-2)Man(a1-3)Man(b1-4)GlcNAc(b1-4)GlcNAc
# Outline: as §1
# [8] = biological target: Gal(b1-4)GlcNAc(b1-2)Man(a1-3)[Gal(b1-4)GlcNAc(b1-2)Man(a1-6)]Man(b1-4)GlcNAc(b1-4)GlcNAc
# Outline: as §1
# [9] = biological target: Gal(b1-4)GlcNAc(b1-2)Man(a1-3)[Gal(b1-4)GlcNAc(b1-2)Man(a1-6)]Man(b1-4)GlcNAc(b1-4)[Fuc(a1-6)]GlcNAc
# Outline: as §1
# [10] = biological target: Gal(b1-4)GlcNAc(b1-2)Man(a1-3)[Gal(b1-4)GlcNAc(b1-2)Man(a1-6)][Gal(b1-4)GlcNAc(b1-4)]Man(b1-4)GlcNAc(b1-4)[Fuc(a1-6)]GlcNAc
# Outline: as §1
# [11] = biological target: Gal(b1-4)GlcNAc(b1-2)Man(a1-3)[Gal(b1-4)GlcNAc(b1-2)Man(a1-6)][GlcNAc(b1-4)]Man(b1-4)GlcNAc(b1-4)[Fuc(a1-6)]GlcNAc
# Outline: as §1
# [12] = biological target: Gal(b1-4)GlcNAc(b1-2)Man(a1-3)[GlcNAc(b1-2)Man(a1-6)]Man(b1-4)GlcNAc(b1-4)GlcNAc
# Outline: as §1
# [13] = biological target: Gal(b1-4)GlcNAc(b1-2)Man(a1-3)[GlcNAc(b1-4)][Gal(b1-4)GlcNAc(b1-2)Man(a1-6)]Man(b1-4)GlcNAc(b1-4)GlcNAc
# Outline: as §1
# [14] = biological target: Gal(b1-4)GlcNAc(b1-2)Man(a1-3)[Man(a1-6)]Man(b1-4)GlcNAc(b1-4)GlcNAc
# Outline: as §1
# [15] = biological target: Gal(b1-4)GlcNAc(b1-2)Man(a1-6)Man(b1-4)GlcNAc(b1-4)GlcNAc
# Outline: as §1
# [16] = biological target: Gal(b1-4)GlcNAc(b1-2)Man(a1-6)[GlcNAc(b1-2)Man(a1-3)]Man(b1-4)GlcNAc(b1-4)GlcNAc
# Outline: as §1
# [17] = biological target: Gal(b1-4)GlcNAc(b1-2)Man(a1-6)[Man(a1-3)]Man(b1-4)GlcNAc(b1-4)GlcNAc
# Outline: as §1
# [18] = biological target: Gal(b1-4)GlcNAc(b1-2)[Gal(b1-4)GlcNAc(b1-4)]Man(a1-3)[Gal(b1-4)GlcNAc(b1-2)Man(a1-6)]Man(b1-4)GlcNAc(b1-4)GlcNAc
# Outline: as §1
# [19] = biological target: Gal(b1-4)GlcNAc(b1-2)[Gal(b1-4)GlcNAc(b1-4)]Man(a1-3)[Gal(b1-4)GlcNAc(b1-2)[Gal(b1-4)GlcNAc(b1-6)]Man(a1-6)]Man(b1-4)GlcNAc(b1-4)GlcNAc
# Outline: as §1
# [20] = biological target: Gal(b1-4)GlcNAc(b1-2)[Gal(b1-4)GlcNAc(b1-4)]Man(a1-3)[GlcNAc(b1-4)][Gal(b1-4)GlcNAc(b1-2)Man(a1-6)]Man(b1-4)GlcNAc(b1-4)GlcNAc
# Outline: as §1
# [21] = biological target: Gal(b1-4)GlcNAc(b1-2)[Gal(b1-4)GlcNAc(b1-4)]Man(a1-3)[GlcNAc(b1-4)][Gal(b1-4)GlcNAc(b1-2)[Gal(b1-4)GlcNAc(b1-6)]Man(a1-6)]Man(b1-4)GlcNAc(b1-4)GlcNAc
# Outline: as §1
# [22] = biological target: Gal(b1-4)GlcNAc(b1-2)[Gal(b1-4)GlcNAc(b1-6)]Man(a1-6)[Gal(b1-4)GlcNAc(b1-2)Man(a1-3)]Man(b1-4)GlcNAc(b1-4)GlcNAc
# Outline: as §1
# [23] = biological target: Gal(b1-4)GlcNAc(b1-2)[Gal(b1-4)GlcNAc(b1-6)]Man(a1-6)[Gal(b1-4)GlcNAc(b1-2)Man(a1-3)]Man(b1-4)GlcNAc(b1-4)[Fuc(a1-6)]GlcNAc
# Outline: as §1
# [24] = biological target: Gal(b1-4)GlcNAc(b1-2)[Gal(b1-4)GlcNAc(b1-6)]Man(a1-6)[GlcNAc(b1-4)][Gal(b1-4)GlcNAc(b1-2)Man(a1-3)]Man(b1-4)GlcNAc(b1-4)GlcNAc
# Outline: as §1
# [25] = biological target: Gal(b1-4)GlcNAc(b1-2)[Gal(b1-4)GlcNAc(b1-6)]Man(a1-6)[GlcNAc(b1-4)][Gal(b1-4)GlcNAc(b1-2)[Gal(b1-4)GlcNAc(b1-4)]Man(a1-3)]Man(b1-4)GlcNAc(b1-4)[Fuc(a1-6)]GlcNAc
# Outline: as §1
# [26] = biological target: Gal(b1-4)GlcNAc(b1-3)Gal(b1-3)GalNAc
# Outline: as §1
# [27] = biological target: Gal(b1-4)GlcNAc(b1-3)Gal(b1-3)GlcNAc
# Outline: as §1
# [28] = biological target: Gal(b1-4)GlcNAc(b1-3)Gal(b1-4)Glc
# Outline: as §1
# [29] = biological target: Gal(b1-4)GlcNAc(b1-3)Gal(b1-4)GlcNAc
# Outline: as §1
# [30] = biological target: Gal(b1-4)GlcNAc(b1-3)Gal(b1-4)GlcNAc(b1-2)Man(a1-3)[Gal(b1-4)GlcNAc(b1-3)Gal(b1-4)GlcNAc(b1-2)Man(a1-6)]Man(b1-4)GlcNAc(b1-4)GlcNAc
# Outline: as §1
binder,measurement,setting,value
"R2-fiber (Pseudomonas aeruginosa), Q9S576 (protein) HHHHHHKVAKDLVVSLAYQVRTEDGVLVDESPVSAPLDYLHGHGSLISGLETALEGHEVGDKFDVAVGANDAYGQYDENLVQRVPKDVFMGVDELQVGMRFLAETDQGPVPVEITAVEDDHVVVDGNHMLAGQNLKFNVEVVAIREATEEELAHGHVHGAHDHHHDHDHDGCCGGHGHDHGHEHGGEGCCGGKGNGGCGCHENLYFQGVTAGMALAATDIPGLDASKLVSGVLAEQRLPVFARGLATAVSNSSDPNTATVPLMLTNHANGPVAGRYFYIQSMFYPDQNGNASQIATSYNATSEMYVRVSYAANPSIREWLPWQRCDIGGSFTKEADGELPGGVNLDSMVTSGWWSQSFTAQAASGANYPIVRAGLLHVYAASSNFIYQTYQAYDGESFYFRCRHSNTWFPWRRMWHGGDFNPSDYLLKSGFYWNALPGKPATFPPSAHNHDVGQLTSGILPLARGGVGSNTAAGARSTIGAGVPATASLGASGWWRDNDTGLIRQWGQVTCPADADASITFPIPFPTLCLGGYANQTSAFHPGTDASTGFRGATTTTAVIRNGYFAQAVLSWEAFGR",glycan array binding signal (z-score),[1],-0.381
same,glycan array binding signal (z-score),[2],-0.006
same,glycan array binding signal (z-score),[3],-0.602
same,glycan array binding signal (z-score),[4],0.253
same,glycan array binding signal (z-score),[5],-0.589
same,glycan array binding signal (z-score),[6],-0.027
same,glycan array binding signal (z-score),[7],-0.479
same,glycan array binding signal (z-score),[8],0.253
same,glycan array binding signal (z-score),[9],0.285
same,glycan array binding signal (z-score),[10],0.179
same,glycan array binding signal (z-score),[11],-1.28
same,glycan array binding signal (z-score),[12],0.11
same,glycan array binding signal (z-score),[13],-0.196
same,glycan array binding signal (z-score),[14],-0.052
same,glycan array binding signal (z-score),[15],-0.17
same,glycan array binding signal (z-score),[16],0.217
same,glycan array binding signal (z-score),[17],0.505
same,glycan array binding signal (z-score),[18],-1.04
same,glycan array binding signal (z-score),[19],-0.915
same,glycan array binding signal (z-score),[20],0.23
same,glycan array binding signal (z-score),[21],-0.104
same,glycan array binding signal (z-score),[22],-0.47
same,glycan array binding signal (z-score),[23],0.885
same,glycan array binding signal (z-score),[24],0.562
same,glycan array binding signal (z-score),[25],0.463
same,glycan array binding signal (z-score),[26],-0.99
same,glycan array binding signal (z-score),[27],0.042
same,glycan array binding signal (z-score),[28],-0.479
same,glycan array binding signal (z-score),[29],-0.391
same,glycan array binding signal (z-score),[30],1.32

# 2 entries drawn at random from the list so far:
binder,measurement,setting,value
"R2-fiber (Pseudomonas aeruginosa), Q9S576 (protein) HHHHHHKVAKDLVVSLAYQVRTEDGVLVDESPVSAPLDYLHGHGSLISGLETALEGHEVGDKFDVAVGANDAYGQYDENLVQRVPKDVFMGVDELQVGMRFLAETDQGPVPVEITAVEDDHVVVDGNHMLAGQNLKFNVEVVAIREATEEELAHGHVHGAHDHHHDHDHDGCCGGHGHDHGHEHGGEGCCGGKGNGGCGCHENLYFQGVTAGMALAATDIPGLDASKLVSGVLAEQRLPVFARGLATAVSNSSDPNTATVPLMLTNHANGPVAGRYFYIQSMFYPDQNGNASQIATSYNATSEMYVRVSYAANPSIREWLPWQRCDIGGSFTKEADGELPGGVNLDSMVTSGWWSQSFTAQAASGANYPIVRAGLLHVYAASSNFIYQTYQAYDGESFYFRCRHSNTWFPWRRMWHGGDFNPSDYLLKSGFYWNALPGKPATFPPSAHNHDVGQLTSGILPLARGGVGSNTAAGARSTIGAGVPATASLGASGWWRDNDTGLIRQWGQVTCPADADASITFPIPFPTLCLGGYANQTSAFHPGTDASTGFRGATTTTAVIRNGYFAQAVLSWEAFGR",glycan array binding signal (z-score),[6],-0.027
same,glycan array binding signal (z-score),[14],-0.052
